The text below walks through data of patent EP3049422B1, “INTUMESCENT COATINGS” (MIPA SE, priority 2013, dated 2015).

One series in a line: Fire test (Brandtest) of impregnated pulp sheets with Bunsen burner. Conditions: Zellstoff sheets 3x3 cm, 20%ige Lösung, 300 s, dried; Bunsenbrenner.
On to `O=C1CN(CN2CC(=O)NC2=O)C(=O)N1` [1,1'-(Methylen) bishydantoin Calcium, Calcium(II)N,N'-methylenbishydantoinat], for which the Brandtest entry is listed as “Brennbar”. The same measure, in the same setting: next, `O=C1CN(CN2CC(=O)NC2=O)C(=O)N1` [1,1'-(Methylen) bishydantoin Kalium, Kalium(I)N,N'-methylenbishydantoinat]: “Starke Intumeszenz”; `O=C1CN(CN2CC(=O)NC2=O)C(=O)N1` [1,1'-(Methylen) bishydantoin Natrium, Natrium(I)N,N'-methylenbishydantoinat]: “Intumeszenz”. `CC(N1CC(=O)NC1=O)N1CC(=O)NC1=O` [1,1'-(Methylmethylen) bishydantoin Calcium] [Calcium(II)N,N'-(methylmethylen)bishydantoinat]: the Brandtest entry is on record as “Brennbar”. Still for that read-out and setting: next, `CC(N1CC(=O)NC1=O)N1CC(=O)NC1=O` [1,1'-(Methylmethylen) bishydantoin Kalium] [Kalium(I)N,N'-(methylmethylen)bishydantoinat]: “Starke Intumeszenz”.

Take `CC(N1CC(=O)NC1=O)N1CC(=O)NC1=O` [1,1'-(Methylmethylen) bishydantoin Natrium] [Natrium(I)N,N'-(methylmethylen)bishydantoinat]: the Brandtest entry is on record as “Starke Intumeszenz”. As for `NC(=O)NC1NC(=O)NC1=O` (stereo not drawn) [Allantoin Calcium, Calcium(II)allantoinat], the Brandtest result is “Brennbar”. Regarding `NC(=O)NC1NC(=O)NC1=O` (stereo not drawn) [Allantoin Kalium, Kalium(I)allantoinat], the Brandtest result is given as “Starke Intumeszenz”. Same read-out and setting: next, `NC(=O)NC1NC(=O)NC1=O` (stereo not drawn) [Allantoin Natrium, Natrium(I)allantoinat]: “Intumeszenz”; `O=C1CN(CN2CC(=O)[N-]C2=O)C(=O)[N-]1.OC[P+](CO)(CO)CO.OC[P+](CO)(CO)CO` [Bis[tetrakis(hydroxymethyl)phosphonium]N,N'-methylenbishydantoinat]: “Selbstlöschend; Starke Rauchbildung”. The same measure, in the same setting: next, `O=C1CNC(=O)N1` [Hydantoin Kalium, Kalium(I)hydantoinat]: “Starke Intumeszenz”; `O=C1CNC(=O)N1` [Hydantoin Natrium, Natrium(I)hydantoinat]: “Intumeszenz”. As to `O=C1CNC(=O)N1` [Hydantoin Tetramethylammonium, Tetramethylammoniumhydantoinat], the Brandtest entry is listed as “Brennbar”.

The same series, now with this note: cell prints a dash instead of words; water-insoluble salts, tried as suspension.
On to `O=C1CNC(=O)N1` [Hydantoin Calcium, Calcium(II)hydantoinat], for which the Brandtest result was “-”.

The same series, now with this note: water-insoluble salt applied as suspension.
For `O=C1CNC(=O)N1` [Hydantoin Calcium, Calcium(II)hydantoinat], the Brandtest result is listed as “versagte beim Brandtest”.
